Source: paper PMC10642969
No constants are given. Whether binding was seen depends on the method and setting. Binding seen in cells or lysates may run through a third protein. Some results given as binding are weak or reduced against the parent protein; the word gives no strength.

T1: SCARECROW (SCR), SCR-RFP (Arabidopsis thaliana), Q9M384
T1 chain: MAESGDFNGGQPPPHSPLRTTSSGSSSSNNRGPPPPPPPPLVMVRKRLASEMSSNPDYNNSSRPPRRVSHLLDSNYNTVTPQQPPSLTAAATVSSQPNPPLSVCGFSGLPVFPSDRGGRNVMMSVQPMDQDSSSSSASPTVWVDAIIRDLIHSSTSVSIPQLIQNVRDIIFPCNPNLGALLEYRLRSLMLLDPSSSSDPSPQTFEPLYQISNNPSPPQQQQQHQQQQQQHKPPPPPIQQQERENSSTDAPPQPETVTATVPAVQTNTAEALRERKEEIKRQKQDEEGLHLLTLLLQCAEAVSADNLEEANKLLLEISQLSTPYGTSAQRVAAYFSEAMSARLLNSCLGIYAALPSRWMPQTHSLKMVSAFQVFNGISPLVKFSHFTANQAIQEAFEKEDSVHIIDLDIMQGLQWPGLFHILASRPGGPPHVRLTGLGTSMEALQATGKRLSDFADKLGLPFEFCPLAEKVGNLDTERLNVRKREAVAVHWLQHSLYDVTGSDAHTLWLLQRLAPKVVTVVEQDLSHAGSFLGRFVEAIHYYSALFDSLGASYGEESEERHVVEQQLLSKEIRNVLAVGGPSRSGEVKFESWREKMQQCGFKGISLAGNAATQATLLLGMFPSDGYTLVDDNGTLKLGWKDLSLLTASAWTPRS


Assays:
[1] = biological target: T1, SCARECROW (SCR), SCR-RFP (Arabidopsis …); experiment: FRET or BRET; FRET-FLIM in vivo in Arabidopsis shoot meristems (lateral organ, sepal and petal primordia); YFP fusion as donor, RFP fusion as acceptor; intensity-weighted mean donor lifetime, bi-exponential fit; conditions: remark: other sources report otherwise
[2] = biological target: SCARECROW-LIKE23 (SCL23), SCL23-mVenus (Arabidopsis thaliana) (UniProt Q9FHZ1); experiment: FRET or BRET; FRET acceptor photobleaching in nuclei of N. benthamiana leaf epidermal cells after inducible transient expression; mVenus donor, mCherry acceptor

binding [1]	binding [2]	Binder
no binding	–	SCARECROW (SCR), SCR-RFP, Q9M384 1-653 (protein) MAESGDFNGGQPPPHSPLRTTSSGSSSSNNRGPPPPPPPPLVMVRKRLASEMSSNPDYNNSSRPPRRVSHLLDSNYNTVTPQQPPSLTAAATVSSQPNPPLSVCGFSGLPVFPSDRGGRNVMMSVQPMDQDSSSSSASPTVWVDAIIRDLIHSSTSVSIPQLIQNVRDIIFPCNPNLGALLEYRLRSLMLLDPSSSSDPSPQTFEPLYQISNNPSPPQQQQQHQQQQQQHKPPPPPIQQQERENSSTDAPPQPETVTATVPAVQTNTAEALRERKEEIKRQKQDEEGLHLLTLLLQCAEAVSADNLEEANKLLLEISQLSTPYGTSAQRVAAYFSEAMSARLLNSCLGIYAALPSRWMPQTHSLKMVSAFQVFNGISPLVKFSHFTANQAIQEAFEKEDSVHIIDLDIMQGLQWPGLFHILASRPGGPPHVRLTGLGTSMEALQATGKRLSDFADKLGLPFEFCPLAEKVGNLDTERLNVRKREAVAVHWLQHSLYDVTGSDAHTLWLLQRLAPKVVTVVEQDLSHAGSFLGRFVEAIHYYSALFDSLGASYGEESEERHVVEQQLLSKEIRNVLAVGGPSRSGEVKFESWREKMQQCGFKGISLAGNAATQATLLLGMFPSDGYTLVDDNGTLKLGWKDLSLLTASAWTPRS
–	binds weakly	SCARECROW-LIKE23 (SCL23), SCL23-mVenus (protein, UniProt Q9FHZ1 1-405) MTTKRIDRDLPSSDDPSSAKRRIEFPEETLENDGAAAIKLLSLLLQCAEYVATDHLREASTLLSEISEICSPFGSSPERVVAYFAQALQTRVISSYLSGACSPLSEKPLTVVQSQKIFSALQTYNSVSPLIKFSHFTANQAIFQALDGEDSVHIIDLDVMQGLQWPALFHILASRPRKLRSIRITGFGSSSDLLASTGRRLADFASSLNLPFEFHPIEGIIGNLIDPSQLATRQGEAVVVHWMQHRLYDVTGNNLETLEILRRLKPNLITVVEQELSYDDGGSFLGRFVEALHYYSALFDALGDGLGEESGERFTVEQIVLGTEIRNIVAHGGGRRKRMKWKEELSRVGFRPVSLRGNPATQAGLLLGMLPWNGYTLVEENGTLRLGWKDLSLLTASAWKSQPFD
